PMC12777510 (Chempluschem, 2025)
Some peptides are written in HELM: one residue between dots, names in brackets for other building blocks, links after the first $.

Assay: general procedure: Fmoc solid-phase peptide synthesis; Rink amide resin (side-chain anchoring of Fmoc-Glu-ODmab); cyclisation: DIC/HOBt, then TBTU/HOBt/DIPEA
Settings: for final purity (method not given): HPLC

| Substance | isolated yield (whole synthesis) | final purity (method not given) (whole synthesis) [%] | final purity (method not given) (late stage modification step) [%] | step yield (late stage modification step, on iturin A2) |
| --- | --- | --- | --- | --- |
| PEPTIDE1{P.[dN].S.[CF3Itu].N.[dY].[dN].Q}$PEPTIDE1,PEPTIDE1,1:R1-8:R2$$$V2.0 | yield 15% | ~95 | – | – |
| PEPTIDE1{P.[dN].S.[bAA14].N.[D-Tyr35CF3].[dN].Q}$PEPTIDE1,PEPTIDE1,1:R1-8:R2$$$V2.0 | 13% | 98 | – | – |
| PEPTIDE1{P.[dN].S.[bAA14].N.[D-Tyr3CF3].[dN].Q}$PEPTIDE1,PEPTIDE1,1:R1-8:R2$$$V2.0 | yield 15% | 96 | 95 | yield 40% |
